We go through 107 sequences from PubChem BioAssay AID1508600 (Functional Genomics Laboratory (NCATS/FGL), 2020).

The campaign covered roughly 53,000 sequences. About 3,700 (7%) were called active.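 The calls were made as follows: active = gene knockdowns whose robust z-score for IL-1 alpha signal is at least 2 or at most -2, so actives lie on both sides; inactive = the rest.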 Some of the results follow.

The nature of the experiment: Components of the Cytosolic LPS Sensing Pathway: Gene Identification via Genome-wide siRNA Screen.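 Also: robust z of the log signal after scaling to non-targeting control siRNA wells of the plate.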 Conditions: RAW264.7 macrophages, IL-1a HTRF, actives lie on both sides, screened at 100 nM (by protocol), cells primed 5 h with Pam3CSK4 first. The method in brief:
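Read-out: IL-1a HTRF on supernatant, divided by plate negative-control median ×100, log-transformed and converted to robust z-score. Cells were RAW264.7 given 100 nM siRNA, Pam3CSK4-primed 5 hours, then LipidA-transfected 24 hour.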
On to GCGGUGAUGAGAGAAACCATT against Zfp617, for which the z-score was inactive: 0.872.
Under GCCCAUUUUAGCUAGAAUCTT against Cd300lg stands inactive: -0.0981.
In the case of GGACUCCAAGAUCAUGGUCTT against Pnck it was inactive: 1.07; in that of GAUCUUUCGACACAUCACCTT against Cyp4a12a, active: -2.02.
As for GCAGGCAUUCUGCUCUAUATT against Oxgr1, the z-score is inactive: 1.01.
Under GCAUGCACUUAAGAUUCUATT against Lypd6b stands inactive: 0.595.
Turning to GCAAAUAGGAGCUAGCCCUTT against Met, the z-score was inactive: -1.46.
For CCCAAUUUGUAUCAGAGGGTT against Tmem132c, the z-score is inactive: -1.19.
Under GCGAACUCCUCUUUAGGCATT against Chrng stands inactive: -0.594; under GCUAAGUUCCAAGGCGACCTT against Serpinh1, active: 2.77; under GCCACAUGCUUCAAUAGUGTT against Lgsn, inactive: -0.899.
On to GGAUGUGGAAACCACUAGGTT against Bst2, for which the z-score was inactive: 0.343.
In the case of “CCAAUUUAAGCAGAUGAGCTT against 4930556L07Rik” it was inactive: 0.385; in that of GCAAAAUGAGAUAGAUCGUTT against Npas4, inactive: 0.389.
Under GCCGCUAUGUCACACUAACTT against Tmem169 stands inactive: 0.44; under GGAAGACUAGGAGAGACGGTT against Pqlc3, inactive: -0.739.
In the case of GGAAAUAGCUGAAGACAAATT against Tacc3 it was inactive: 0.961; in that of CCUUCAUGCAACCAGAGGUTT against Ptp4a3, inactive: -1.06.
Consider CCUGGUAUAUUACCGCUUCTT against P3h4, for which the z-score is inactive: 0.519.
In the case of GGUUCUUUCGACUUCCUGCTT against Ccbe1 it was inactive: -0.166; in that of GGUCAUAGGUACGUAUCCGTT against Siglech, inactive: -0.465.
In the case of GCACAGUGGAUGCAAUCAGTT against Btbd1 it was inactive: -1.9.
In the case of CCAAUUAGCCUAGGUUUGGTT against Olfr799 it was inactive: -0.509.
As to GGCUUCAUCAUGCUCAUUGTT against Mllt1, the z-score was inactive: -0.625.
On to CCAAAUCGUACUGGAAGACTT against Ttr, for which the z-score was inactive: 0.47.
In the case of GGCCAAGAACUCUCUCAUGTT against Ess2 it was inactive: 0.347; in that of CCAAUCUCCUGUUGUUAAATT against Mlf1, inactive: 0.557; in that of GGAGAUUGGCUUCCAGAAATT against Slc38a7, inactive: 0.494.
In the case of GGUUCAGAAUUUUUCCUUCTT against Olfr330 it was inactive: 0.131; in that of GGAAAAAGAAGCAAGAGCUTT against Mark3, inactive: 1.2; in that of GGGUGAAAGCUGACUUUAATT against Rnh1, inactive: -1.57.
Consider GCGGAAACAAUCCAUUUAATT against Pcdhgb7, for which the z-score was inactive: 1.11.
In the case of “GAAAUUAGAACAACUUUGGTT against 3830403N18Rik” it was inactive: 0.442.
As to CCAUCUCUCUAAUGAUUGATT against Txndc5, the z-score was inactive: -0.604.
Under CCUGCAUCACGUUAGUUACTT against Ankrd28 stands inactive: 0.146; under GGACUCGUAGCGAUAAUGATT against Slc35g1, inactive: -0.594; under GGGAAGGGUGAAGAACAGGTT against Ifrd2, inactive: 0.872.
Under GCAUGCGUUUUUCCGGUAUTT against Prkcb stands inactive: 1.24.
In the case of GGACCCACAACUCCCUUUUTT against Thap7 it was inactive: -1.34; in that of GCCAACCAUUAAGCUACUATT against Gyg, inactive: -0.535.
In the case of CGCUGAAAUAAAGACCAGATT against Lmf1, the z-score is inactive: 0.696.
In the case of GGUACUAGAUGACAAAAACTT against Cfap20 it was inactive: 0.436; in that of GGAGGAUGAGAUGAUGCCATT against Sez6l2, active: -2.19.
Under GGAAACAACAGAAUAAAGCTT against Chrm1 stands inactive: 0.369.
In the case of CGUGGAAUCCAGACACUUGTT against Gsdma2 it was inactive: 1.65.
Consider GCCAUCUGUAGUGACCAGATT against Notch2, for which the z-score was inactive: -0.493.
In the case of GCAGCGUACAAAUCCUUCUTT against Numb it was inactive: -0.201; in that of GCAGUGACGACCAAAAAUCTT against Ttc12, inactive: -0.736.
In the case of GGUCUUCUCCGAGUACUUUTT against Ap1m1, the z-score is active: 4.38.
Take GGGAUCUGGAUUUAAUUUGTT against Arf5: the z-score was inactive: 0.523.
As to GCAUGAAGAGCUAAUGCUATT against Eprs, the z-score was inactive: -0.364.
With GGCCCAACACAGAGAUACUTT against Cttnbp2nl, the z-score was inactive: 1.24.
In the case of GGACUUUGUUCUGGAAUCGTT against Mterf3 it was inactive: 0.224; in that of CCUACUUAAGGUCUAGUUUTT against Tafa1, inactive: 0.26; in that of GGACCUGACCUACUCGUGUTT against Rxrb, inactive: -0.216.
Under GGAGAUUUGUUGUUAAGGGTT against Pcdhb2 stands inactive: -0.826; under GGAAAGUGUGGUGACUUCATT against Olfr860, inactive: 1.08.
Under GGUCCUAGGAGACUUUUUGTT against Dnah11 stands inactive: -0.444; under GAAGCAGAUACCAAAACAATT against Kir3dl1, active: -3.02.
On to GGAGUCUACCAUGUGAUCUTT against Tmem134, for which the z-score was inactive: 0.583.
In the case of GGCUUUGAAUUUCUAAGACTT against Olfr125 it was inactive: -1.96; in that of GCUCUGUUAUAGCCAUGGUTT against Spib, inactive: 0.0925.
Consider GGGCAAGUUACAAGAAAUGTT against Mif4gd, for which the z-score is inactive: 1.16.
Under CGCGCAAUGCUCCUUUGAGTT against Retnlb stands inactive: 0.704.
In the case of GGAAUACACUCAAUAUUGATT against Nupl1 it was active: -2.59; in that of GGUCUAAUACUCAAUAGACTT against Tmem200a, inactive: 0.0917.
As for GGAAAGGAAUCCAAAAAUCTT against Lias, the z-score was inactive: -0.42.
In the case of GGACCAAGUGGAGAAAGAATT against Nkx6-1 it was inactive: -0.622; in that of GGUAGCUGUUUAGGACAAUTT against Arl6ip5, active: 3.79.
Consider GCAGGAUUAUUUGUCACUUTT against Lims2, for which the z-score is inactive: 1.72.
Regarding GGAAAUCCUCAACUUCAUUTT against Cyp2b13, the z-score is inactive: -0.296.
Take UCAUCGUACCCAUUCCCAATT against Manbal: the z-score is inactive: -1.32.
Under GGAAAGGAAAAUCAACUUCTT against Usp14 stands inactive: 0.0989; under GGGAUUUGUUGUCUAAGAUTT against Mapk10, inactive: -0.54.
Under GGCCUAUGGAUUUGACUUCTT against Mrpl28 stands inactive: 0.131.
Under GGCAAACAUGGAAUACACCTT against Gabrd stands inactive: 1.01.
Consider GGCCACUCUUCUAGUGCAUTT against Tmem39b, for which the z-score is inactive: 1.27.
For GGUUCUUCAGGACAAUGUGTT against Edem2, the z-score is inactive: 0.669.
Regarding GGUCAAUGGAAUGAAAACCTT against Ptprc, the z-score is inactive: 0.217.
In the case of GGCACUUUGUUCUAGCAGCTT against Pcdhb21 it was inactive: 0.959; in that of CCUACUGCAUUAAAAAACUTT against Lactb2, inactive: -1.17; in that of GUUCAAGACGGAGAAGAGGTT against Gpr27, active: 3.03.
Under CCCAGCUAGACAGUCUUUCTT against Il11 stands active: 2.58.
Under CCGACUAUCUAUCUACUGATT against Agxt2 stands inactive: 0.0442; under GCUUCUUCCUUAGAUGGCATT against Kcnb1, inactive: -1.32.
Take GCAUCUGAAAAUCCUCAACTT against Cxcl12: the z-score was inactive: -1.21.
Under CCCUCAAAACCUUAAUGGGTT against B3galt1 stands inactive: -0.223; under GGCCCUACAAACUAUUAACTT against Impa2, inactive: 1.24.
Under CGCACUGAAGGGAUGCGAUTT against Dyrk2 stands inactive: 0.646.
As for GCAGUAUACUUUUGUGAAUTT against Plxna2, the z-score was inactive: -0.0681.
In the case of GGCUGUGGAUCUCCUAUCATT against Rnf144b, the z-score was inactive: -0.881.
On to GGCUAUCUUCAAUAUACUGTT against Lamp3, for which the z-score is inactive: 0.471.
For GGAAGAAUCUGAUUCGUAATT against Snapc5, the z-score was inactive: -1.28.
In the case of CGACCCUAAGAAGAAUUUUTT against Nsdhl it was inactive: 1.73; in that of GGCUUCAUUCUUGUCCUCCTT against Reg3b, inactive: -0.105.
Under “GGAGCAGUGAUGGAGAAUATT against C230012O17Rik” stands inactive: 0.324; under GGGAUCUCCAUACUCUCCUTT against Prima1, inactive: 0.242.
In the case of GGGUGAUGCCCUUGAAUCUTT against Twf2 it was active: 2.48; in that of GCCCUUCGCUUAAAGACCATT against Mecr, inactive: 0.148; in that of GGAUCUGACAAGGUACAAGTT against Acsm5, inactive: 0.145.
For GGAAAAAAAAGGAUUUCUCTT against Pnkp, the z-score is inactive: 1.21.
Under GGAACUGUGUGUCUUCUCCTT against Kcns3 stands inactive: -1.78.
In the case of GGGAAAAGAGCUUGUCCGATT against Phf8-ps it was inactive: -0.795; in that of GCUGUAACCAACAUACCUCTT against Inka1, inactive: -0.91; in that of GGAAGAACUGUCAAAGAAATT against Cd3g, inactive: -0.316.
In the case of GGUGUUCGACGUGACCAAATT against Pgrmc1 it was inactive: 0.613; in that of GCUGUUUAAUCUGUUAUGCTT against Rps17, inactive: 0.502.
